PubChem BioAssay AID1259308, NCATS | 2017

Test: 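Genes whose loss raises luciferase production in HEK293 cells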 (primary screen)
Cells: human HEK293 embryonic kidney cells stably expressing firefly luciferase (HEK-CMV-Luc2-Hygro)
Reagents: single siRNA against human genes, 0.8 pmol siRNA per well
Timing: 72 h
Read-out: 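Luciferase light (ONE-Glo) measured on one replicate plate set and viability (CellTiter-Glo) on the other, scaled to a negative control siRNA, with robust z-scores and luciferase per cell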
Direction: total luciferase, z-score: higher = more reporter protein produced
Rule for the call: 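Active when the median/MAD z-score for overall luciferase is greater than 3; a gene was taken forward for validation with new siRNAs if at least two of its three siRNAs passed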
Meaning of the calls: active = raised luciferase; inactive = no rise
Shown is one part, drawn at random, of about 59,000 deposited reagents. In the full data, about 1,510 (2.6%) are marked active. 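Calls use total luciferase alone and ignore viability, so some active siRNAs may act by altering cell number.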 Not all columns of the deposit are shown.

What did the screen give for OGG1 (8-oxoguanine DNA glycosylase) [SID160723967]?
total luciferase, z-score: -0.249; Outcome: inactive

With OGG1 (8-oxoguanine DNA glycosylase) [SID160731315], what was measured?
total luciferase, z-score: 2.92; Outcome: inactive

With OGG1 (8-oxoguanine DNA glycosylase) [SID160778366], what does the deposit list?
total luciferase, z-score: 1.09; Outcome: inactive

How did the screen score TRAIP (TRAF interacting protein) [SID160728100]?
total luciferase, z-score: -0.118; Outcome: inactive

How did the screen score TRAIP (TRAF interacting protein) [SID160728101]?
total luciferase, z-score: -0.266; Outcome: inactive

With TRAIP (TRAF interacting protein) [SID160730424], what does the deposit list?
total luciferase, z-score: -0.104; Outcome: inactive

For EXOSC7 (exosome component 7) [SID160730815], what was measured?
total luciferase, z-score: 0.656; Outcome: inactive

Which result is listed for EXOSC7 (exosome component 7) [SID160735103]?
total luciferase, z-score: -0.775; Outcome: inactive

How did the screen score EXOSC7 (exosome component 7) [SID160735109]?
total luciferase, z-score: -0.355; Outcome: inactive

For ERICH1 (glutamate rich 1) [SID160759544], how do the results read?
total luciferase, z-score: -0.433; Outcome: inactive

What did the screen give for ERICH1 (glutamate rich 1) [SID160759545]?
total luciferase, z-score: 1.46; Outcome: inactive

What is on record for ERICH1 (glutamate rich 1) [SID160759546]?
total luciferase, z-score: -2.26; Outcome: inactive

For RRM2 (ribonucleotide reductase regulatory subunit M2) [SID160716232], what was measured?
total luciferase, z-score: 0.499; Outcome: inactive

For RRM2 (ribonucleotide reductase regulatory subunit M2) [SID160716233], what does the deposit list?
total luciferase, z-score: -1.95; Outcome: inactive

What is on record for RRM2 (ribonucleotide reductase regulatory subunit M2) [SID160716234]?
total luciferase, z-score: -0.275; Outcome: inactive

What is on record for RRM2 (ribonucleotide reductase regulatory subunit M2) [SID160765075]?
total luciferase, z-score: 4.53; Outcome: active

What is on record for RRM2 (ribonucleotide reductase regulatory subunit M2) [SID160765076]?
total luciferase, z-score: 0.193; Outcome: inactive

With RRM2 (ribonucleotide reductase regulatory subunit M2) [SID160765077], how do the results read?
total luciferase, z-score: 0.0386; Outcome: inactive

How did the screen score PCDHGA6 (protocadherin gamma subfamily A, 6) [SID160744789]?
total luciferase, z-score: 0.573; Outcome: inactive

For PCDHGA6 (protocadherin gamma subfamily A, 6) [SID160744790], what was measured?
total luciferase, z-score: -1.13; Outcome: inactive

Which result is listed for PCDHGA6 (protocadherin gamma subfamily A, 6) [SID160744791]?
total luciferase, z-score: -0.805; Outcome: inactive

Individual results from the list.
Result for ERICH1 (glutamate rich 1) [SID160759545] in “total luciferase, z-score”: 1.46
Under “Outcome”, EXOSC7 (exosome component 7) [SID160735109] shows inactive
